Laboratory results published in the supplement of paper PMC10849652.
The list shows a part of the results.

Sequences of proteins named here, by UniProt entry; tags and fusion partners are left off. A change or cut given only in a name is not applied to a line headed by its entry.
UniProt Q8WWK9: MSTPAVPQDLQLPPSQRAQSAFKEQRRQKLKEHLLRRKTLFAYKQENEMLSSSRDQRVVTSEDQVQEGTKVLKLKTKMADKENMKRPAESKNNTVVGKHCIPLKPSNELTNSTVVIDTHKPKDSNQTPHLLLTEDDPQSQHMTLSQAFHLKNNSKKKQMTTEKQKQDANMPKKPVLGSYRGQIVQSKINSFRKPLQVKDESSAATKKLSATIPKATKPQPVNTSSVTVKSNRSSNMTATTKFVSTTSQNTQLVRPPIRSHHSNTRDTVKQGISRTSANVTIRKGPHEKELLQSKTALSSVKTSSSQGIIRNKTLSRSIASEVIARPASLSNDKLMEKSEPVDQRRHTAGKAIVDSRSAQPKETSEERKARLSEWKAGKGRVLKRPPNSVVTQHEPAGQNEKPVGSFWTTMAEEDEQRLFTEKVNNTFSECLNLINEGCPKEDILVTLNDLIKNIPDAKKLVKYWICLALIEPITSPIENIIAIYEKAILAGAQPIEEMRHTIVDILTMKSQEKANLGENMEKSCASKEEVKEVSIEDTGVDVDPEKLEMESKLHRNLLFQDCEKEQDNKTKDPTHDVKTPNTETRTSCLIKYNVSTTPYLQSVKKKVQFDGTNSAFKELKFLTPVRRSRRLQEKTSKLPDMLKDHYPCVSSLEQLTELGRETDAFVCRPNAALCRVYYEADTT
UniProt O43405: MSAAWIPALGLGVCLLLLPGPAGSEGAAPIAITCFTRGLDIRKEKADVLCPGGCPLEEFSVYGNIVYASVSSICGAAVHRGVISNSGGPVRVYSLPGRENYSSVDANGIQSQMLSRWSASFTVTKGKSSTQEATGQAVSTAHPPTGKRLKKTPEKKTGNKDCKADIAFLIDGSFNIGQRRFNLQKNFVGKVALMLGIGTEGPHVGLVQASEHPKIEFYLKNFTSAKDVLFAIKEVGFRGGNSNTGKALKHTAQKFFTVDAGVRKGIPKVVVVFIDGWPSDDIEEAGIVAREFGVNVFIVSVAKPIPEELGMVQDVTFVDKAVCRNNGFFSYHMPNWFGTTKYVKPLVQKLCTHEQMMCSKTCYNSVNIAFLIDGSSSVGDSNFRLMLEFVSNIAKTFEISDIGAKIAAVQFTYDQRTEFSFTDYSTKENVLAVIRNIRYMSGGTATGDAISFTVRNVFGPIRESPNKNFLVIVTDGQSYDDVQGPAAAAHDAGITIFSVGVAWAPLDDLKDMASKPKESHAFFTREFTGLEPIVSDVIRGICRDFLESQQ
UniProt Q99439: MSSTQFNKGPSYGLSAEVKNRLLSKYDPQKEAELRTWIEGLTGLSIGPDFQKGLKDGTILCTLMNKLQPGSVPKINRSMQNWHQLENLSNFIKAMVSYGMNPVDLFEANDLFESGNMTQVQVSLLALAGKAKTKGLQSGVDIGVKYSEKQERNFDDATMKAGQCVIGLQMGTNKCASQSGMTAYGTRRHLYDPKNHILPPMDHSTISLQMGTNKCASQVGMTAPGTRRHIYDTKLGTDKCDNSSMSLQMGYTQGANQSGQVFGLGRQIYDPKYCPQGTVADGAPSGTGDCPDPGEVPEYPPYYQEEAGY
UniProt P61024, whole entry, looked up: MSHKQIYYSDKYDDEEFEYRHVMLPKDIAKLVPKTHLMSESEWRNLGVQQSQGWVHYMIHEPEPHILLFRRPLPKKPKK
UniProt Q14677: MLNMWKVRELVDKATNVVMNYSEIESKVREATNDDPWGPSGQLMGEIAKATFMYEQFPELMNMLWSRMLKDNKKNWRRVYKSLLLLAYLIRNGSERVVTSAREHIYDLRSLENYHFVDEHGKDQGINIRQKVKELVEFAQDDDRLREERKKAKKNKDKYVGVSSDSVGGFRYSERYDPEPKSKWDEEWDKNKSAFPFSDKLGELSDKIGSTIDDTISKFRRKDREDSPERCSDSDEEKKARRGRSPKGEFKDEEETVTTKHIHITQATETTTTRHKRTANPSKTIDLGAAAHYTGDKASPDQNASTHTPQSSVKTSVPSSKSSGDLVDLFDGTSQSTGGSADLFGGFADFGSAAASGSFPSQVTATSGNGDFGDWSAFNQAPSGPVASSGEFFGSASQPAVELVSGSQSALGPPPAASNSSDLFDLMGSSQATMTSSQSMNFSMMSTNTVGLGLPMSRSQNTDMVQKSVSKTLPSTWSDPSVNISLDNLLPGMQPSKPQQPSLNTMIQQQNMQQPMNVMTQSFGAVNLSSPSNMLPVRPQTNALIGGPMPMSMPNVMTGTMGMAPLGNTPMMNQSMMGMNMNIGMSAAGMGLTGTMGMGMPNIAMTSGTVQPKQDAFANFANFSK
UniProt O14578, whole entry, looked up: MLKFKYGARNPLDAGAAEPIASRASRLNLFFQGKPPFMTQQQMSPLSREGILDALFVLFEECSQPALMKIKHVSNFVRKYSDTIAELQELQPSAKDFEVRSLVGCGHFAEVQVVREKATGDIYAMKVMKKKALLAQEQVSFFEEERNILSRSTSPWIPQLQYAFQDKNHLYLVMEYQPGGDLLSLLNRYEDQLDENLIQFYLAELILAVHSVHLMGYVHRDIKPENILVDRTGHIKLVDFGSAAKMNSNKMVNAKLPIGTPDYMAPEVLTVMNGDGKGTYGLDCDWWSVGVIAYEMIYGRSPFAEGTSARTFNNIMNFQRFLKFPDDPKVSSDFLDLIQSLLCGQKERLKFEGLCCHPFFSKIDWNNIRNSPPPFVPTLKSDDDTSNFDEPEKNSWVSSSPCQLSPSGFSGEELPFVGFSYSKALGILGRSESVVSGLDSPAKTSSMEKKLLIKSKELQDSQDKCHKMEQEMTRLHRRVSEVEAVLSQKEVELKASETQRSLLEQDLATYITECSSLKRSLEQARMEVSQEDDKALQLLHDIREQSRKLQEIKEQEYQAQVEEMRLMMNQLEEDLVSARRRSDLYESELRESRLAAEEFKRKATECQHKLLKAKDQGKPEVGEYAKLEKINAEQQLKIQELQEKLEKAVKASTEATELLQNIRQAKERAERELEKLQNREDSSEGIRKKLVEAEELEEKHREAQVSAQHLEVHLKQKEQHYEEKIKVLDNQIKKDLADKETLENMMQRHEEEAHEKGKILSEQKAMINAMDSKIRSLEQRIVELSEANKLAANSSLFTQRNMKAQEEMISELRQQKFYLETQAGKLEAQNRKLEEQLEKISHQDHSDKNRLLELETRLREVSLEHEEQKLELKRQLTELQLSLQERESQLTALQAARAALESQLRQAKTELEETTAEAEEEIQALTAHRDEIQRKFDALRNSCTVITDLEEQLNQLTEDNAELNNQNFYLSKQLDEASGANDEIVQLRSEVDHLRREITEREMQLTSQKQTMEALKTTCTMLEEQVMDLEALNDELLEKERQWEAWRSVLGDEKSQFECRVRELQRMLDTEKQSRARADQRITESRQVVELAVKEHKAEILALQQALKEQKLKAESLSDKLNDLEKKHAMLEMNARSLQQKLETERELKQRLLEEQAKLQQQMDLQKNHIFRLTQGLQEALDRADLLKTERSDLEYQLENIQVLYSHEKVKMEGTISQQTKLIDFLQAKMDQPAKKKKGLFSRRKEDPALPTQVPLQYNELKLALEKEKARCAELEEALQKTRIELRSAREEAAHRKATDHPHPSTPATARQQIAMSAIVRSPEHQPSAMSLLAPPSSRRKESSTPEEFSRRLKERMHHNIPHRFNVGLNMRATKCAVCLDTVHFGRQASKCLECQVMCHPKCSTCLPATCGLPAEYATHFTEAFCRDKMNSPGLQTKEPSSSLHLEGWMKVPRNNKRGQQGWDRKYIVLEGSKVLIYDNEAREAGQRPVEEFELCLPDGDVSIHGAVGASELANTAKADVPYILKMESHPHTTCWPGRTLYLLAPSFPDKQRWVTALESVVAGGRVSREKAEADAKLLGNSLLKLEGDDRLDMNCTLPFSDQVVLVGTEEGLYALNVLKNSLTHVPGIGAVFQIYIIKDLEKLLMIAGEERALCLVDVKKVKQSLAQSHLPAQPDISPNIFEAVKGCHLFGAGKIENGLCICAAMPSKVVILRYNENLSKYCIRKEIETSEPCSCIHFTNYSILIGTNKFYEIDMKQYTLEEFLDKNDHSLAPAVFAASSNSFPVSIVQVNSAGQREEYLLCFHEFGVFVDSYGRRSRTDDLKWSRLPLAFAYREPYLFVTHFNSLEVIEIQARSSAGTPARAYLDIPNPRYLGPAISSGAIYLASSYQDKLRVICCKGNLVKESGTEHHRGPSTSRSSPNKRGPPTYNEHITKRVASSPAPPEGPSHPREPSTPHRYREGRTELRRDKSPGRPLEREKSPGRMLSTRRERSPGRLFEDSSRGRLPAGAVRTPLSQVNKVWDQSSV
UniProt O75153: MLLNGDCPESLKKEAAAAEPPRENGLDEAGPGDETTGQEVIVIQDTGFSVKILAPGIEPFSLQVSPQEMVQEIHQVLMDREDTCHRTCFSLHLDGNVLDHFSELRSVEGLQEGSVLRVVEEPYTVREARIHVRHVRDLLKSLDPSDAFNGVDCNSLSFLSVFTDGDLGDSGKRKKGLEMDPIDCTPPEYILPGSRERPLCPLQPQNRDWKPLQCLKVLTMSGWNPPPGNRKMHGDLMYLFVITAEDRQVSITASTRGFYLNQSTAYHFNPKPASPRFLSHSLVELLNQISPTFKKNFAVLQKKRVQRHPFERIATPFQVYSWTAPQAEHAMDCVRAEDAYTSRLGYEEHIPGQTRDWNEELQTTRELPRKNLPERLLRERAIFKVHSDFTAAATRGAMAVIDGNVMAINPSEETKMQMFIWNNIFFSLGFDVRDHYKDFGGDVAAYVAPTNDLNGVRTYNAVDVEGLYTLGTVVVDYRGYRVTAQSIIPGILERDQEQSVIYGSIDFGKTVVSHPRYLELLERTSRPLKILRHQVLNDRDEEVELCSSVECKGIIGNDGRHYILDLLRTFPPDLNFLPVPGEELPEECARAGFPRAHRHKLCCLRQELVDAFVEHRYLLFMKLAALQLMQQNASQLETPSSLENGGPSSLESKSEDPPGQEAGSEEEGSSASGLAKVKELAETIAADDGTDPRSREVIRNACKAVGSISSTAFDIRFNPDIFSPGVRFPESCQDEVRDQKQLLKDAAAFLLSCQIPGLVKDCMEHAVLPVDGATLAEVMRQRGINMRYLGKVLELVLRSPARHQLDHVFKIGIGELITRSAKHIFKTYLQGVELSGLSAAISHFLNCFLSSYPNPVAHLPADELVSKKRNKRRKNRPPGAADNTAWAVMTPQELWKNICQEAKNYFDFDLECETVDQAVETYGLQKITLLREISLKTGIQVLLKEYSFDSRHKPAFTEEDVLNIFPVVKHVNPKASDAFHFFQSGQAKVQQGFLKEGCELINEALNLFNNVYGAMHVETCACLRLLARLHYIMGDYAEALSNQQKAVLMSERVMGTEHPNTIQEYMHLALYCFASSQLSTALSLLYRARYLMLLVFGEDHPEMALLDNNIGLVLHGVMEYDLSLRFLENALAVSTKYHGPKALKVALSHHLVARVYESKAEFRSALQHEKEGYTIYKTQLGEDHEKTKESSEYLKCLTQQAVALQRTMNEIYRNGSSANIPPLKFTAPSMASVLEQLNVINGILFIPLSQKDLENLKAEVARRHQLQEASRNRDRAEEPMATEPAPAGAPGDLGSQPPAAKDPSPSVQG
UniProt Q9NPF2: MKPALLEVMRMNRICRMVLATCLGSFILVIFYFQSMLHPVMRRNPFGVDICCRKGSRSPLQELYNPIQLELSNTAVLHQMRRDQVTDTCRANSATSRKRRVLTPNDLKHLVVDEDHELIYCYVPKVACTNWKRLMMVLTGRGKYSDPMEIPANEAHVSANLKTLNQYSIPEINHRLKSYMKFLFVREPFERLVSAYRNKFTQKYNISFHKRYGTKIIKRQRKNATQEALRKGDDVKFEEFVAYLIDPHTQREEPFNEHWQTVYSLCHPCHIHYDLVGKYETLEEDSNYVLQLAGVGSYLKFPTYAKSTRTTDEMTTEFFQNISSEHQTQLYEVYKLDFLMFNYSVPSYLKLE
UniProt Q8WUX9: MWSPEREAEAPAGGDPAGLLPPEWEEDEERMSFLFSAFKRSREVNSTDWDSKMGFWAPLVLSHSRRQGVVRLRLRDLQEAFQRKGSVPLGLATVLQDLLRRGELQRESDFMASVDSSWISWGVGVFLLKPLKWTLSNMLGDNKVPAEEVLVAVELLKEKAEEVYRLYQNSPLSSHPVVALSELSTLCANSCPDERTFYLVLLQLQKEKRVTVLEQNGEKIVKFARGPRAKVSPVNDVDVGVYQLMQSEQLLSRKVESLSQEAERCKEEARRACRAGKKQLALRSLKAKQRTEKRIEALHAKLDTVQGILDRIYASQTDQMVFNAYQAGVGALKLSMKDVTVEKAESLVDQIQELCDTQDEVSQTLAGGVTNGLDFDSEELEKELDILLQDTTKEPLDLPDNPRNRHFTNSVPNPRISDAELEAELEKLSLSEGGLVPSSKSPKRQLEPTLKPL

Tests used:
Assay in all cases: log2 fold change, soluble protein after heating vs DMSO (PISA); higher = thermal stabilisation; K562 cells, 10 uM, 30 min; active = over 0.2 and 3.5 SD of the protein, either way, in both replicates (recomputed)
[1] = compound: CC1=C(C=C(C=C1)NC(=O)C2=CC(=CC=C2)C(C)(C)C#N)NC3=CC4=C(C=C3)N=CN(C4=O)C
Method in brief: (§1)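 Soluble protein was defined as the supernatant after 21,000xg for 90 min. It came from K562 cells at 2×10^6 cells/mL given 10 μM compound for 30 min, heated in aliquots for 3 min across 48°C-58°C, pooled, and extracted in PBS with 0.5% NP-40 at 4°C, and was quantified by TMTpro 16plex LC-MS/MS with equalised channel sums. Thermal stability against control samples, from duplicates, is reported as log2 fold change.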

[2] = compound: CC1=C(C=C(C=C1)NC(=O)C2=CC(=CC=C2)N(C)C)NC(=O)C3=CC=C(C=C3)O
Method in brief: as §1

[3] = compound: CC1=CC=C(C=C1)SC2=C3C=C(SC3=CN=C2)C(=O)N
Method in brief: as §1

[4] = compound: CC1=NC(=CC=C1)C2=C(N=C(N2)C(C)(C)C)C3=CC4=NC=CN=C4C=C3
Method in brief: as §1

[5] = compound: CCCCN(Cc1ccc(C(=O)NO)cc1)C(=O)Nc1ccccc1 [Nexturastat A]
Method in brief: as §1

[6] = compound: CCCS(=O)(=O)Nc1ccc(F)c(C(=O)c2c[nH]c3ncc(Cl)cc23)c1F
Method in brief: as §1

[7] = compound: CCCc1cc(C)[nH]c(=O)c1CNC(=O)c1cc(-c2ccnc(N3CCN(C)CC3)c2)cc2c1cnn2C(C)C
Method in brief: as §1

[8] = compound: CCN(CC)Cc1ccc2cc(COC(=O)Nc3ccc(C(=O)NO)cc3)ccc2c1 [givinostat]
Method in brief: as §1

[9] = compound: CC[C@@H]1C(=O)N(C)c2cnc(Nc3ccc(C(=O)N[C@H]4CC[C@H](N5CCN(CC6CC6)CC5)CC4)cc3OC)nc2N1C(C)C [volasertib]
Method in brief: as §1

[10] = compound: CC[C@H](C)N1C=C(C2=C(C=C(C=C21)C3=CN=C(C=C3)N4CCNCC4)C(=O)NCC5=C(C=C(NC5=O)C)C)C
Method in brief: as §1

[11] = compound: CC[C@H](C)[C@@H](C(=O)N[C@@H]([C@@H](C)O)C(=O)N[C@@H](CC(C)C)C(=O)[C@]1(CO1)C)NC(=O)[C@H]([C@@H](C)CC)N(C)C(=O)C [epoxomicin]
Method in brief: as §1

[12] = compound: CCn1c(C(=O)N(C2CC2)C2CC2)cc2c3c(ncn3C)c(Nc3cc(C)n(C)n3)nc21
Method in brief: as §1

[13] = compound: CN1C2=C(C3=C1C(=O)N(N=C3)CC4=CC(=CC=C4)N)SC(=C2)S(=O)C
Method in brief: as §1

[14] = compound: CCCS(=O)(=O)Nc1ccc(F)c(C(=O)c2c[nH]c3ncc(-c4ccc(Cl)cc4)cc23)c1F [vemurafenib]
Method in brief: as §1

[15] = compound: CCN(CCCOc1ccc2c(Nc3cc(CC(=O)Nc4cccc(F)c4)[nH]n3)ncnc2c1)CCOP(=O)(O)O [barasertib]
Method in brief: as §1

[16] = compound: CC[C@@H]1C(=O)N(C)c2cnc(Nc3ccc(C(=O)NC4CCN(C)CC4)cc3OC)nc2N1C1CCCC1
Method in brief: as §1

[17] = compound: CCn1cc(-c2ccnc3[nH]c(-c4cccc(CN(C)C)c4)cc23)c(-c2ccc(NC(=O)N(C)C)cc2)n1
Method in brief: as §1

[18] = compound: CN(C)CC(=O)Nc1ccc2[nH]c(=O)c3ccccc3c2c1
Method in brief: as §1

[19] = compound: CN1CCC(CNc2ccc3ncc(-c4cccc(OC(F)(F)F)c4)n3n2)CC1
Method in brief: as §1

[20] = compound: CN(CCOC1=CC=C(C=C1)C[C@H]2C(=O)NC(=O)S2)C3=CC=CC=N3 (racemic) [rosiglitazone]
Method in brief: as §1

Q: For CKAP2 (UniProt Q8WWK9), which log2 fold change [1] is on record?
A: inactive: -0.023

Q: And the log2 fold change [2]?
A: inactive: 0.125

Q: What about the log2 fold change [3] of the same target?
A: inactive: -0.095

Q: And the log2 fold change [4]?
A: inactive: -0.163

Q: And the log2 fold change [5]?
A: inactive: 0.402

Q: What about the log2 fold change [6] of the same target?
A: inactive: -0.019

Q: What about the log2 fold change [7] of the same target?
A: inactive: 0.204

Q: And the log2 fold change [8]?
A: inactive: 0.156

Q: What about the log2 fold change [9] of the same target?
A: inactive: -0.356

Q: What about the log2 fold change [10] of the same target?
A: inactive: 0.026

Q: What about the log2 fold change [11] of the same target?
A: inactive: -0.272

Q: What about the log2 fold change [12] of the same target?
A: inactive: -0.135

Q: What about the log2 fold change [13] of the same target?
A: inactive: 0.395

Q: COCH (UniProt O43405) was tested. Which log2 fold change [1] did it give?
A: inactive: 0.072

Q: And the log2 fold change [2]?
A: inactive: 0.053

Q: And the log2 fold change [3]?
A: inactive: 0.059

Q: What about the log2 fold change [4] of the same target?
A: inactive: 0.005

Q: What about the log2 fold change [5] of the same target?
A: inactive: 0.046

Q: What about the log2 fold change [14] of the same target?
A: inactive: -0.067

Q: And the log2 fold change [6]?
A: inactive: -0.05

Q: And the log2 fold change [7]?
A: inactive: 0.076

Q: And the log2 fold change [8]?
A: inactive: -0.049

Q: What about the log2 fold change [15] of the same target?
A: inactive: 0

Q: And the log2 fold change [16]?
A: inactive: 0.117

Q: And the log2 fold change [9]?
A: inactive: -0.08

Q: What about the log2 fold change [10] of the same target?
A: inactive: -0.065

Q: And the log2 fold change [11]?
A: inactive: -0.153

Q: And the log2 fold change [17]?
A: inactive: 0.075

Q: What about the log2 fold change [18] of the same target?
A: inactive: -0.127

Q: And the log2 fold change [13]?
A: inactive: 0.007

Q: And the log2 fold change [19]?
A: inactive: 0.076

Q: What does the source list for CNN2 (UniProt Q99439)?
A: log2 fold change [1]: inactive: 0.034; log2 fold change [2]: inactive: -0.037; log2 fold change [3]: inactive: 0.035; log2 fold change [4]: inactive: 0.023; log2 fold change [5]: inactive: -0.042; log2 fold change [14]: inactive: 0.085; log2 fold change [6]: inactive: 0.073; log2 fold change [7]: inactive: 0.003; log2 fold change [8]: inactive: 0.063; log2 fold change [15]: inactive: 0.077; log2 fold change [16]: inactive: -0.149; log2 fold change [9]: active: -0.354; log2 fold change [10]: inactive: 0.058; log2 fold change [11]: inactive: 0.106; log2 fold change [17]: inactive: 0.03; log2 fold change [18]: inactive: 0.023; log2 fold change [13]: inactive: 0.012; log2 fold change [19]: inactive: -0.055

Q: For CKS1B (UniProt P61024), which log2 fold change [1] is on record?
A: inactive: -0.043

Q: And the log2 fold change [2]?
A: inactive: -0.094

Q: And the log2 fold change [3]?
A: inactive: -0.121

Q: And the log2 fold change [4]?
A: inactive: 0.036

Q: And the log2 fold change [5]?
A: inactive: -0.005

Q: And the log2 fold change [14]?
A: inactive: 0.056

Q: And the log2 fold change [6]?
A: inactive: -0.17

Q: What about the log2 fold change [7] of the same target?
A: inactive: -0.38

Q: What about the log2 fold change [8] of the same target?
A: inactive: -0.034

Q: What about the log2 fold change [15] of the same target?
A: inactive: 0.029

Q: What about the log2 fold change [16] of the same target?
A: inactive: -0.028

Q: And the log2 fold change [9]?
A: inactive: 0.068

Q: What about the log2 fold change [10] of the same target?
A: inactive: 0.094

Q: What about the log2 fold change [11] of the same target?
A: inactive: 0.014

Q: And the log2 fold change [17]?
A: inactive: 0.041

Q: And the log2 fold change [18]?
A: inactive: -0.024

Q: And the log2 fold change [13]?
A: inactive: 0.022

Q: And the log2 fold change [19]?
A: inactive: -0.006

Q: CLINT1 isoform 3 (UniProt Q14677) was tested. Which log2 fold change [1] did it give?
A: inactive: -0.082

Q: What about the log2 fold change [2] of the same target?
A: inactive: -0.001

Q: What about the log2 fold change [3] of the same target?
A: inactive: -0.094

Q: And the log2 fold change [4]?
A: inactive: -0.09

Q: And the log2 fold change [5]?
A: inactive: 0.122

Q: What about the log2 fold change [14] of the same target?
A: inactive: -0.049

Q: What about the log2 fold change [6] of the same target?
A: inactive: -0.073

Q: And the log2 fold change [7]?
A: inactive: -0.019

Q: What about the log2 fold change [8] of the same target?
A: inactive: -0.01

Q: What about the log2 fold change [15] of the same target?
A: inactive: -0.047

Q: What about the log2 fold change [16] of the same target?
A: inactive: 0.17

Q: And the log2 fold change [9]?
A: inactive: 0.047

Q: And the log2 fold change [10]?
A: inactive: -0.01

Q: What about the log2 fold change [11] of the same target?
A: inactive: -0.038

Q: And the log2 fold change [17]?
A: inactive: 0.042

Q: And the log2 fold change [18]?
A: inactive: -0.06

Q: And the log2 fold change [13]?
A: inactive: 0.075

Q: And the log2 fold change [19]?
A: active: 0.259

Q: Which results are given for CIT isoform 4 (UniProt O14578)?
A: log2 fold change [1]: inactive: -0.105; log2 fold change [2]: inactive: 0.017; log2 fold change [3]: inactive: -0.003; log2 fold change [4]: inactive: -0.032; log2 fold change [5]: inactive: -0.02; log2 fold change [14]: inactive: -0.012; log2 fold change [6]: inactive: 0.01; log2 fold change [7]: inactive: 0.002; log2 fold change [8]: inactive: 0.033; log2 fold change [15]: inactive: 0.047; log2 fold change [16]: inactive: 0.068; log2 fold change [9]: inactive: -0.225; log2 fold change [10]: inactive: 0.134; log2 fold change [11]: inactive: 0.017; log2 fold change [17]: inactive: -0.033; log2 fold change [18]: inactive: -0.037; log2 fold change [13]: inactive: 0; log2 fold change [19]: inactive: -0.033

Q: Which log2 fold change [1] does the source give for CLUH (UniProt O75153) here?
A: inactive: -0.017

Q: What about the log2 fold change [2] of the same target?
A: inactive: -0.08

Q: And the log2 fold change [3]?
A: inactive: -0.002

Q: And the log2 fold change [4]?
A: inactive: -0.072

Q: And the log2 fold change [5]?
A: inactive: -0.022

Q: And the log2 fold change [14]?
A: inactive: 0.047

Q: What about the log2 fold change [6] of the same target?
A: inactive: -0.03

Q: What about the log2 fold change [7] of the same target?
A: inactive: 0.049

Q: What about the log2 fold change [8] of the same target?
A: inactive: 0.016

Q: And the log2 fold change [15]?
A: inactive: 0.033

Q: And the log2 fold change [16]?
A: inactive: 0.225

Q: And the log2 fold change [9]?
A: active: 0.632

Q: What about the log2 fold change [10] of the same target?
A: inactive: 0.015

Q: And the log2 fold change [11]?
A: inactive: -0.028

Q: What about the log2 fold change [17] of the same target?
A: inactive: -0.113

Q: And the log2 fold change [18]?
A: inactive: 0.094

Q: And the log2 fold change [13]?
A: inactive: 0.019

Q: What about the log2 fold change [19] of the same target?
A: active: 0.387

Q: What does the source list for CHST11 (UniProt Q9NPF2)?
A: log2 fold change [1]: inactive: 0.019; log2 fold change [2]: inactive: 0.099; log2 fold change [3]: inactive: 0.189; log2 fold change [4]: inactive: 0.047; log2 fold change [5]: inactive: 0.013; log2 fold change [14]: inactive: 0.027; log2 fold change [6]: active: 0.384; log2 fold change [7]: inactive: 0.089; log2 fold change [8]: inactive: -0.029; log2 fold change [15]: inactive: 0.049; log2 fold change [16]: inactive: -0.215; log2 fold change [9]: inactive: -0.187; log2 fold change [10]: inactive: -0.078; log2 fold change [11]: inactive: 0.011; log2 fold change [17]: inactive: -0.017; log2 fold change [18]: inactive: -0.045; log2 fold change [19]: inactive: 0.022

Q: How did the log2 fold change [1] turn out when CHMP7 (UniProt Q8WUX9) was run?
A: inactive: -0.098

Q: And the log2 fold change [2]?
A: inactive: -0.061

Q: What about the log2 fold change [3] of the same target?
A: inactive: 0.122

Q: And the log2 fold change [4]?
A: inactive: 0.082

Q: And the log2 fold change [5]?
A: inactive: 0.064

Q: What about the log2 fold change [6] of the same target?
A: inactive: 0.279

Q: What about the log2 fold change [7] of the same target?
A: inactive: 0.091

Q: And the log2 fold change [8]?
A: inactive: 0.065

Q: What about the log2 fold change [15] of the same target?
A: inactive: 0.032

Q: And the log2 fold change [16]?
A: inactive: -0.015

Q: And the log2 fold change [9]?
A: inactive: -0.379

Q: And the log2 fold change [10]?
A: inactive: 0.042

Q: What about the log2 fold change [11] of the same target?
A: inactive: 0.071

Q: What about the log2 fold change [12] of the same target?
A: inactive: -0.004

Q: What about the log2 fold change [17] of the same target?
A: inactive: 0.061

Q: What about the log2 fold change [20] of the same target?
A: inactive: 0.162

Q: What about the log2 fold change [13] of the same target?
A: inactive: 0.181

Q: What about the log2 fold change [19] of the same target?
A: inactive: -0.158
